# These are yes or no findings as the source states them, for the method shown. Binding seen in cells or lysates may run through a third protein.
# B1: Plasmodium falciparum chitinase PfCHT1 expressed in chimeric P. berghei Pb-PfCHT1(r) (enzyme, UniProt Q8I4R4 29-378)
# chain: HRARPGESRKNPREIIKTFKESGKGIIQGYYPSWVSYNHNLKDLNPNLNVVHMSFAKMDLSYDSIESIVGSPLLFKSLIGLEYIGLNEYFNDAMNLRKARPDIIMLLSLGGETYHPSSFDSALNAVEKIANLVDELGFDGIDVDYEPNGSFDGLNDKEKADFFVQYVTKLREYMCDDKLISISQSSNGALSCIGFNDPKKICMDDEAPYNSKYFNKPDVKKELLRAAQMASAGGAIYLMNNLKDMIDMVFVQTFNYTNSTDSTVMKELYDSYAYYGKKYDYVIIMGFTLMFPSTPFNPNDKMLVKSIGDFVKTENKLNKRADGFGLWSLSSDNAAHNEQLAIEYFVESLH
# Target: Plasmodium falciparum chitinase PfCHT1 expressed in chimeric P. berghei Pb-PfCHT1(r) (P. falciparum) (UniProt Q8I4R4)
# Experiment: chitin bead pull-down, non-reducing SDS-PAGE and western blot; chitin beads in Pb-PfCHT1(r) ookinete culture supernatant, 4°C for 4 h; washed with PBST (0.5% Tween 20) and PBS; SDS sample buffer without 2-mercaptoethanol; probed with mAb 1C3
binder,measurement,value
B1,binding,no binding
